According to article PMC8137916:
No constants are given. Whether binding was seen depends on the method and setting. Some results given as binding are weak or reduced against the parent protein; the word gives no strength.

Columns and labels:
[1] = target: T1, PfSRP14 (residues 1-104), SRP14 from Plasmodium falciparum (Plasmodium falciparum) (UniProt F2X1X6); test: SAXS; purified heterodimer in solution, 20°C, beamline BM29 (ESRF), flow mode; ab initio envelope (DAMMIF/DAMMIN); both purified
T1 sequence: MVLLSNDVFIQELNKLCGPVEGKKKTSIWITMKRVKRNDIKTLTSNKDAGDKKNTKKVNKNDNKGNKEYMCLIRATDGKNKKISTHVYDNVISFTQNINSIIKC

[2] = target: T1, PfSRP14 (residues 1-104), SRP14 from Plasmodium falciparum (Plasmodium falciparum); test: SEC-MALS; co-expressed and co-purified heterodimer, ~1 mg/mL, Superdex 200 10/300, 4°C, 20 mM HEPES pH 7.5, 150 mM NaCl, 10 mM MgCl2, 10 mM KCl, 1 mM DTT; both purified

- binding [1]: binds
- binding [2]: binds
B1: PfSRP9 (residues 1-103), SRP9 from Plasmodium falciparum (protein, UniProt F2X1X5 1-103)
chain: MVYAESWNDFIHTTRNIISKSPDKTRYVIKLHRPSETIIVKVTDNNNSIMYKLDKNDNMKKIEELNSLFLMWGTSENPNEPFPLKMNKITDKGTIDQKMKKTK
